Laboratory results published in the supplement of paper PMC11732987, “Enantioselective OTUD7B fragment discovery through chemoproteomics screening and high-throughput optimisation” (Communications Chemistry, 2025).
Some of the results follow. The data scatter; read single values as rough.

The chains behind the UniProt entries cited, without tags or fusion partners. Where a name states a change or a piece, a line headed by the entry shows the natural chain unless it says otherwise. Residues count along the entry.
UniProt Q13137: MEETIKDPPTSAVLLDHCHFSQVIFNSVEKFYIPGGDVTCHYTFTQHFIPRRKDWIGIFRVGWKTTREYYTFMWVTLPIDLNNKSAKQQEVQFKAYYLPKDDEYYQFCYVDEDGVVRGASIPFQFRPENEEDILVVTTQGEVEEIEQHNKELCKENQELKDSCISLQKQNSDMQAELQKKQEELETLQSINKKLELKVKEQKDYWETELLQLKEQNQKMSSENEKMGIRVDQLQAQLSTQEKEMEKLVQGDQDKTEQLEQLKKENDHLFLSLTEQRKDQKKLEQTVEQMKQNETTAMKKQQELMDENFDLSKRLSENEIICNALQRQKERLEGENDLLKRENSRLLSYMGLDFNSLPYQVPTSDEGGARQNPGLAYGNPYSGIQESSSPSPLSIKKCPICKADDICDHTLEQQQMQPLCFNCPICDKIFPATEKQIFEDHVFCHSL
UniProt Q8NFC6: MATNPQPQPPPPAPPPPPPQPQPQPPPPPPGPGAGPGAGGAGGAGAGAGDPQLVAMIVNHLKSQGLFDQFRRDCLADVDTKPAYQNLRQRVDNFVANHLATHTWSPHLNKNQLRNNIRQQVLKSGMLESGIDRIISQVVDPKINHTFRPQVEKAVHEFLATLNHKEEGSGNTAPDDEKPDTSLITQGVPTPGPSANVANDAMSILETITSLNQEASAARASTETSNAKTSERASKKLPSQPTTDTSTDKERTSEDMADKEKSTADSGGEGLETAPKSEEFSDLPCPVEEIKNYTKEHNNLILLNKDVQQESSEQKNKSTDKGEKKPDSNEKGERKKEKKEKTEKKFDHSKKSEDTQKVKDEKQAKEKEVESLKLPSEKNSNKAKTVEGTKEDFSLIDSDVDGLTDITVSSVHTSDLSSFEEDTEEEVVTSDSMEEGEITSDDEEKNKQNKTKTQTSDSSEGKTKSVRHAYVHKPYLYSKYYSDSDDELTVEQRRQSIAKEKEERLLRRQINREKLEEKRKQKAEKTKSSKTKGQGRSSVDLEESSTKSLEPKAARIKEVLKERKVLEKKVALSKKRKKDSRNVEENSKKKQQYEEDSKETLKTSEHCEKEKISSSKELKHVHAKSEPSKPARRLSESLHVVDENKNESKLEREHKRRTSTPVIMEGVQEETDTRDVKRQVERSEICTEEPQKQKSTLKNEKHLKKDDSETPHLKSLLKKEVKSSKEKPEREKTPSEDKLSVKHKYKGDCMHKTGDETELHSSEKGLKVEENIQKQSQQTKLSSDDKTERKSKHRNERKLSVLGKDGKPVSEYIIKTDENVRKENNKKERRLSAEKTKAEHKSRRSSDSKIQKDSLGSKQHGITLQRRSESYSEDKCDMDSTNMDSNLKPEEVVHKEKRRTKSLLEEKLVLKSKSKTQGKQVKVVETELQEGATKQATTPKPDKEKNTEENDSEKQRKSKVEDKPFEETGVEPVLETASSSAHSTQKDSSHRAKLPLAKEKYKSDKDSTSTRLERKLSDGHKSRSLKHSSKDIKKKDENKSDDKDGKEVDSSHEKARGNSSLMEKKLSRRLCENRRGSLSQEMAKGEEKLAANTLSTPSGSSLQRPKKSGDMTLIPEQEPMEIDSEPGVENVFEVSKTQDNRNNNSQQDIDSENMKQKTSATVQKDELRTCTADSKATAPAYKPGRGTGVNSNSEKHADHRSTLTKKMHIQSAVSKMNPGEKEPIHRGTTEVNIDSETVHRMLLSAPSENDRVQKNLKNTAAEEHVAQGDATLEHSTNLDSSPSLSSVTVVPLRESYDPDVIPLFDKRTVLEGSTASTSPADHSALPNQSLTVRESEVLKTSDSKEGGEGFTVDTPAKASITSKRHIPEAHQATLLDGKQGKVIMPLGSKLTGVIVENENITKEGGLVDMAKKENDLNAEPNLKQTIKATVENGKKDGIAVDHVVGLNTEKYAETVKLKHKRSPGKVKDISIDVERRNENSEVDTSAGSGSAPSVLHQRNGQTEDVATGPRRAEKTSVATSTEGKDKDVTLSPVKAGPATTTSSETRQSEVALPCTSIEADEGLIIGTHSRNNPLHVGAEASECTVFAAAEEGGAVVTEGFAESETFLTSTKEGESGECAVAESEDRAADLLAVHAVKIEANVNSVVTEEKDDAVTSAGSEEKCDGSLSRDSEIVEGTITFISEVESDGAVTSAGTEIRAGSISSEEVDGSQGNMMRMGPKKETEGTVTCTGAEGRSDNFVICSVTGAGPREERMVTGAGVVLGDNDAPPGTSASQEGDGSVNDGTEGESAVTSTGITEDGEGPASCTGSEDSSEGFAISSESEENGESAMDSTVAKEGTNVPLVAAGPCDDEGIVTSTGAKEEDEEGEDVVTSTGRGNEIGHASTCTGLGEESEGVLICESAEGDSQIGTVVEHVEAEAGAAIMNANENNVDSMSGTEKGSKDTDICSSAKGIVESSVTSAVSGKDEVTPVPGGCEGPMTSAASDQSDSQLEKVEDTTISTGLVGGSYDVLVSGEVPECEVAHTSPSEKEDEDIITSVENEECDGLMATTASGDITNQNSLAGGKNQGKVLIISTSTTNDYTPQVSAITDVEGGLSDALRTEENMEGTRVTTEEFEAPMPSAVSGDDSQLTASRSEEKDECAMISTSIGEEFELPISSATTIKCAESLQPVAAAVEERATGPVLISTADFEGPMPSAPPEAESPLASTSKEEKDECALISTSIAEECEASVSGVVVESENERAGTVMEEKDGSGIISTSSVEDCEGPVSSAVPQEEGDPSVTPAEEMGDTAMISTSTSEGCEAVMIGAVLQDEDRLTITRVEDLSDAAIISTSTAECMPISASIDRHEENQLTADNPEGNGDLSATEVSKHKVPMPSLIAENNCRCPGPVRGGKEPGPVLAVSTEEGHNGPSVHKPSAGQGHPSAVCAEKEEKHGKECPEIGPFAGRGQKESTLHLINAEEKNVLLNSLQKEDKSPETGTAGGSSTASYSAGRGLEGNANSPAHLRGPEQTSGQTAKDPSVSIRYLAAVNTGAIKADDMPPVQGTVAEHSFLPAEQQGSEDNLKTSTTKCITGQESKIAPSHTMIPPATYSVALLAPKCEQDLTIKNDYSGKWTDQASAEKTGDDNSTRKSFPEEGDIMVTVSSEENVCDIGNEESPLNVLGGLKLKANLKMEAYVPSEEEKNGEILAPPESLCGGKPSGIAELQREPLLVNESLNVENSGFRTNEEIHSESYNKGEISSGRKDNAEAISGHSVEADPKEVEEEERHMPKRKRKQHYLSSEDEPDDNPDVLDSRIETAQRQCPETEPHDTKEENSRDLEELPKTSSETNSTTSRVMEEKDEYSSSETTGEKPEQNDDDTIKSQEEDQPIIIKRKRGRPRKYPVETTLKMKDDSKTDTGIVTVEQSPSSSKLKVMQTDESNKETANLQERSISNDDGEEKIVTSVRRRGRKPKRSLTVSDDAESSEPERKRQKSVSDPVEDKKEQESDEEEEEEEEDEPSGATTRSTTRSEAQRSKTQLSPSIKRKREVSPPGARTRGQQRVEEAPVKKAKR
UniProt Q9HA77: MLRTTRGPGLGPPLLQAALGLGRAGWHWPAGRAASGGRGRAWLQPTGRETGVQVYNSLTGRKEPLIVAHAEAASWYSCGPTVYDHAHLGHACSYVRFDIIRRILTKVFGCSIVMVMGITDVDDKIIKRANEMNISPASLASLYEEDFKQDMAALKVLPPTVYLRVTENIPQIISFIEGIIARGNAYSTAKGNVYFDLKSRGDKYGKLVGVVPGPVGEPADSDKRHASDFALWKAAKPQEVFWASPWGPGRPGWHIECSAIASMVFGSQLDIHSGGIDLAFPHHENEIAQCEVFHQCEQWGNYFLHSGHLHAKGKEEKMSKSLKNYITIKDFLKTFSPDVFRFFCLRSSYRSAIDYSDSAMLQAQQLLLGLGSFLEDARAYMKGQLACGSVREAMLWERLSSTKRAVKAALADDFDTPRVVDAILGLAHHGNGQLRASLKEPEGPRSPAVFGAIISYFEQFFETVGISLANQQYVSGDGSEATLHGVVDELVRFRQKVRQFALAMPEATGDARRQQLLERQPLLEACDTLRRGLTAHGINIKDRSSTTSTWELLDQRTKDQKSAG
UniProt Q8N4J0: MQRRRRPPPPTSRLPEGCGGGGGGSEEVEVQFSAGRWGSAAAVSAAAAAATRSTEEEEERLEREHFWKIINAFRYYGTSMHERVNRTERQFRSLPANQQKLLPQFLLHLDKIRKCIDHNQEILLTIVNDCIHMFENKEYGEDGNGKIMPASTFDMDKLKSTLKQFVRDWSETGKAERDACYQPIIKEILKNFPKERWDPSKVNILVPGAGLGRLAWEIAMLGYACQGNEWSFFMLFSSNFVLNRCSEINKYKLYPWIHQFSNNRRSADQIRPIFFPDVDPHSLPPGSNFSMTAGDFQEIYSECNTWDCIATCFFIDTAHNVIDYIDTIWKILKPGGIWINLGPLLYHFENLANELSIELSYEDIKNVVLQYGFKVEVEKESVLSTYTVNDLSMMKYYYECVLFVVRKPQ
UniProt Q9HB71: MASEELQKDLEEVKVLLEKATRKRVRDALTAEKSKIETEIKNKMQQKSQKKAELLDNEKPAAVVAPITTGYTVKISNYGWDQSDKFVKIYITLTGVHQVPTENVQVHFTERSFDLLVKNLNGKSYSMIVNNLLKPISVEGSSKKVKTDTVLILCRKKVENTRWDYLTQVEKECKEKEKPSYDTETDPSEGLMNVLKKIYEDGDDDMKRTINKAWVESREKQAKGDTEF
UniProt P35520: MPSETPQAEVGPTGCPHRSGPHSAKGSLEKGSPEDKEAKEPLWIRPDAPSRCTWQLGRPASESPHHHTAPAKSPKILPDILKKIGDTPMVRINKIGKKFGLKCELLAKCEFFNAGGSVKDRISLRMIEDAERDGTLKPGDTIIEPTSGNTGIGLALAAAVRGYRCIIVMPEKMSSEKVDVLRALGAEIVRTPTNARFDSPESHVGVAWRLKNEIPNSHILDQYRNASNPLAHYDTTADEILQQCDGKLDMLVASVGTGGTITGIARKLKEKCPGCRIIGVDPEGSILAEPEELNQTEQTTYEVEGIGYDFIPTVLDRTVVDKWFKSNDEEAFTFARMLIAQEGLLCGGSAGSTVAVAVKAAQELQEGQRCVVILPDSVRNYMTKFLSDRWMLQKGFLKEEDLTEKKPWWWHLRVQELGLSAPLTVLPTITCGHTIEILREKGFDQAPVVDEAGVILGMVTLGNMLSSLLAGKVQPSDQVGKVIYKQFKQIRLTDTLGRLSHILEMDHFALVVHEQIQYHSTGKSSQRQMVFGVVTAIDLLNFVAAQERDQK
UniProt O43684: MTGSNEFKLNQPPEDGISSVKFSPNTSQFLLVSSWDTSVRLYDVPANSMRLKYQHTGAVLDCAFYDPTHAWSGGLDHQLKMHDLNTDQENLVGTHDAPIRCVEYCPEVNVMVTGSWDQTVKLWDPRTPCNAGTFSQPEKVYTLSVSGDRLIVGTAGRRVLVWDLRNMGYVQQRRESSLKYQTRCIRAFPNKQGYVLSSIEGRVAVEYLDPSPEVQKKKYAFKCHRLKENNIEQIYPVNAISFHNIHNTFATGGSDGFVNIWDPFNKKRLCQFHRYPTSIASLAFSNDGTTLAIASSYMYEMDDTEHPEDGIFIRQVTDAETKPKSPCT
UniProt Q9H8G2, 215-234: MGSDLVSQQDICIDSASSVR
UniProt P55212: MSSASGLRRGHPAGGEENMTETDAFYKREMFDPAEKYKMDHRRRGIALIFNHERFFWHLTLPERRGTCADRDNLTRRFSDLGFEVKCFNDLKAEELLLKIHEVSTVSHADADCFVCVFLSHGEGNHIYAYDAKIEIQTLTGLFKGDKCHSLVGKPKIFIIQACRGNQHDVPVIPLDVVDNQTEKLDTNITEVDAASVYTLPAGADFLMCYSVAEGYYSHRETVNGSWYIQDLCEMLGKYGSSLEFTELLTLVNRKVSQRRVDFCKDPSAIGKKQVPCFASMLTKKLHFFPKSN
UniProt Q13557: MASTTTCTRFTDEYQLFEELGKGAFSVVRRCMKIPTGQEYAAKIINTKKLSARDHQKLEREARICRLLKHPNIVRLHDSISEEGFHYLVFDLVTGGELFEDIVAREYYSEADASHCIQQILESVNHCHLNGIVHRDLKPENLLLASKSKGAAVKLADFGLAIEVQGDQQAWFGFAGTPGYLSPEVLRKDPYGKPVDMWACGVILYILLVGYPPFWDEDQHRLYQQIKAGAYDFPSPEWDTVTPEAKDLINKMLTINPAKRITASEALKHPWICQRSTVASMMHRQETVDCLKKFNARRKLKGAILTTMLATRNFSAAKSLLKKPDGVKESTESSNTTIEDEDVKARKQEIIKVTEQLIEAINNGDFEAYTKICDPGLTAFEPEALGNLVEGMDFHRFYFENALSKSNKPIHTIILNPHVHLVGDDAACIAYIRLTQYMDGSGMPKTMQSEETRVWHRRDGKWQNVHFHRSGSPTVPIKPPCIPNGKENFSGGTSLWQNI

Compound: ClCC(=O)N[C@H]1CCCc2ccccc12
Assay: log2 mean competition ratio of IA-DTB cysteine labelling (DMSO/compound) (log2 ratio); higher = stronger cysteine engagement by compound
Settings: 50 µM; treatment time: 4 h; cell line lysate: HEK293T
Procedure: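 IA-DTB competitive cysteine chemoproteomics in HEK293T RIPA lysate. Lysates were treated with compound 29 or 30 at 50 or 200 µM for 4 h, then IA-DTB (500 µM, 1 h), trypsin-digested, NeutrAvidin-enriched and analysed by diaPASEF. Competition ratio = intensity DMSO / intensity compound (n=4 treated, n=64 DMSO); binding: mean log2 CR ≥ 1 and p ≤ 0.05 plus QC filters. Target is the cysteine site.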

Target	log2 mean competition ratio
BRIP1 C401 (UniProt Q9BX63)	-0.467
CALCOCO2 C321 (UniProt Q13137)	-0.274
BOD1L1 C1618 (UniProt Q8NFC6)	-0.143
CAMKV C301	0.03
CARS2 C387 (UniProt Q9HA77)	0.000996
CBR3 C143 (UniProt O75828)	0.289
BORCS6 C356 (UniProt Q96GS4)	0.29
CARNMT1 C180 (UniProt Q8N4J0)	-0.0445
BRPF3 C981	-0.0565
CACYBP C173 (UniProt Q9HB71)	-0.308
BRCA2 C2212 (UniProt P51587)	-0.0453
CBS C370 (UniProt P35520)	-0.0863
CAPN2 C341 (UniProt P17655)	-0.159
BTAF1 C914 (UniProt O14981)	0.226
BUB3 C129 (UniProt O43684)	-0.246
CAAP1 C226 (UniProt Q9H8G2)	-0.104
CASP6 C264 (UniProt P55212)	-0.35
CAPN1 C351	-0.373
CAD C787	-0.496
CAMK2D C481 (UniProt Q13557)	0.0503

Same assay, conditions: 200 µM; treatment time: 4 h; cell line lysate: HEK293T

Target	log2 mean competition ratio
BRIP1 C401 (UniProt Q9BX63)	-0.201
CALCOCO2 C321 (UniProt Q13137)	0.245
BOD1L1 C1618 (UniProt Q8NFC6)	-0.0439
CAMKV C301	-0.108
CARS2 C387 (UniProt Q9HA77)	-0.225
CBR3 C143 (UniProt O75828)	0.449
BORCS6 C356 (UniProt Q96GS4)	0.103
CARNMT1 C180 (UniProt Q8N4J0)	-0.0546
BRPF3 C981	0.0516
CACYBP C173 (UniProt Q9HB71)	0.204
BRCA2 C2212 (UniProt P51587)	-0.193
CBS C370 (UniProt P35520)	0.295
CAPN2 C341 (UniProt P17655)	-0.179
BTAF1 C914 (UniProt O14981)	0.629
BUB3 C129 (UniProt O43684)	-0.184
CAAP1 C226 (UniProt Q9H8G2)	-0.0236
CASP6 C264 (UniProt P55212)	-0.163
CAPN1 C351	-0.13
CAD C787	-0.33
CAMK2D C481 (UniProt Q13557)	-0.612
